These are yes or no findings as the source states them, for the method shown. Some binding calls cover weakened binding; strength is not graded here.
Target: T1, bovine CD40 receptor (Bos taurus (bovine)) (UniProt Q28203)
T1 sequence: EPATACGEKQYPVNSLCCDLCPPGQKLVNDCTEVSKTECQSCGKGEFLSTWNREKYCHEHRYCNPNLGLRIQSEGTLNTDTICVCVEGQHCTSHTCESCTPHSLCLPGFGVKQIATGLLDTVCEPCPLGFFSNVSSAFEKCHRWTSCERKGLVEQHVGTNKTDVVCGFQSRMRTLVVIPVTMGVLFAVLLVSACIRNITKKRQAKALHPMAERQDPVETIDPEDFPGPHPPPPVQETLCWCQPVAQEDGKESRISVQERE
Test: flow cytometry on Cos7 cells transfected with bovine CD40 or not; detection with anti-GST antibodies and PE-anti-rabbit IgG; GST alone as control

Protein sequences, listed by entry. Tags and fused reporters are not part of them. Lines headed by an entry give the natural chain unless they say otherwise; changes in a name come on top.
UniProt P51749: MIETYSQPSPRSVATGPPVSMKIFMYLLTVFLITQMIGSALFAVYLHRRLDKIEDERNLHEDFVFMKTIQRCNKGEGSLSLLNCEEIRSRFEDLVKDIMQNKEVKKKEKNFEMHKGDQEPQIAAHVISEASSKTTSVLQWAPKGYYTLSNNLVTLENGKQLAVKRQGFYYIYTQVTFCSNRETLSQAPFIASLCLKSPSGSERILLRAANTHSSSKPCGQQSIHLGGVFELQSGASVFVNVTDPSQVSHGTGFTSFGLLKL

**Q.** Which binding does the source give for “GST-fusion CD40L proteins (bovine CD40L fused to glutathione S-transferase, produced in BL21-A1 bacteria) (from UniProt P51749 113-261) (ligand)” here?
**A.** The binding was “binds”.

Source: patent US20140050732A1
